From PubChem BioAssay AID504437 (Emory University Molecular Libraries Screening Center, 2011)
This is a selection; strong and weak results do not stand in their true shares. Active and inactive are the calls of the source.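 How the source made its calls: active means mean of three repeat readings of reporter signal inhibition above a set limit (cut at about 70% in these data); inactive means the rest.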

Assay: retest of CHOP induction inhibitors, confirmation, cell-based (AID 504437);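 further: 0% = tunicamycin plus vehicle and 100% = wells lacking tunicamycin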
Conditions: CHO-CHOP promoter luciferase reporter, tunicamycin-induced, luminescence; at 10 µM; active compounds read high
For COc1cc(CN2CCc3ccccc3C2)ccc1O, the inhibition was active: 113%. In the case of CCc1ccc(Oc2coc3cc(OCC(=O)Nc4cc(C)ccc4C)ccc3c2=O)cc1, the inhibition is reported as active: 104%. With CC(C)(C)C1CCC2(CC1)C(C#N)=C(SCC(=O)Nc1ccccc1)NC(=O)C2C#N (stereo not given) the inhibition was active: 113%. With Nc1nonc1-n1nnc(C(=O)N/N=C/c2ccc(OCc3ccc(F)cc3)cc2)c1COc1ccccc1 the inhibition was active: 83.8%. With COc1ccc2[nH]c3c(C)c4ccncc4c(C)c3c2c1 the inhibition was active: 127%.
